The whole screen tested about 320,000 compounds, of which about 480 (0.15%) were called active. This list was built around the results that the source calls inconclusive (neither active nor inactive); the mix of calls is not that of the screen. Cut-off read from the data, not from the text of the source: active = inhibition above about 26% (passing the limit was not always enough); inconclusive = no clear call, values can overlap the other calls. Square brackets hold non-standard residues; d marks the D form. Peptide text beside a SMILES is read from it. * marks the point of attachment. ξ: configuration not given here. ξY = NC(Cc1ccc(O)cc1)C(=O)O; Cbz = O=C(OCc1ccccc1)*; OtBu = CC(C)(C)O*; tBu = CC(C)(C)*
Molecular target: Histone deacetylase 3 (Homo sapiens) (UniProt O15379)
Test: HDAC3 deacetylase inhibitors, primary screen, biochemical, fluorescence, cell-free homogeneous (AID 2718)
Settings: recombinant HDAC3, fluorogenic peptide/trypsin coupled, at 8.3 µM, hits give high values

The chains behind the UniProt entries cited, without tags or fusion partners. Where a name states a change or a piece, a line headed by the entry shows the natural chain unless it says otherwise.
UniProt O15379: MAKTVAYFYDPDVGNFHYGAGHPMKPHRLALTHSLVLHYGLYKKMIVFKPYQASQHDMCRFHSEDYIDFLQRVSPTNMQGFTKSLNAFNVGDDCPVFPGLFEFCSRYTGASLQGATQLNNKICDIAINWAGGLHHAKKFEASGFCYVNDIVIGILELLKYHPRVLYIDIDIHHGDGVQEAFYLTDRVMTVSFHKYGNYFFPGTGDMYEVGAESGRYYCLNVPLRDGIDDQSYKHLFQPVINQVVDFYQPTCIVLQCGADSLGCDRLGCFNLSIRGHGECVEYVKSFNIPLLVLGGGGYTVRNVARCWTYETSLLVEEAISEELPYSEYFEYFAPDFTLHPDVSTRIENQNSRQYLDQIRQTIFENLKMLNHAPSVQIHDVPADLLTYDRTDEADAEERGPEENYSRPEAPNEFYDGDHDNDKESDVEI

Row | SMILES | inhibition
1 | Cc1ccc(S(=O)(=O)N2CCCCC2)cc1C(=O)N(C)CC(=O)Nc1ccc(Cl)c(C(F)(F)F)c1 | inconclusive: 25.3%
2 | CCCCCCCCC(=O)N/N=C(\C)c1ccc(O)cc1O | inconclusive: 29.9%
3 | COc1ccc(S(=O)(=O)Nc2ccccc2C(=O)N2CCOCC2)cc1OC | inconclusive: 10.4%
4 | C/C(CCc1ccc2c(c1)OCO2)=N\N=C1\NC(=O)CC(C(=O)Nc2ccccc2F)S1 (stereo unspecified) | inconclusive: 19.5%
5 | O=C(CN1C(=O)NC2(CCCc3ccccc32)C1=O)c1ccc(Br)cc1 (stereo unspecified) | inconclusive: 22.3%
6 | COc1cccc(NC(=O)c2nn(C34CC5CC(CC(C5)C3)C4)cc2[N+](=O)[O-])c1 | inconclusive: 23.9%
7 | Cc1cc(Cl)ccc1C(=O)C1CCCN(C(=O)c2cnn(C(C)C)c2)C1 (stereo unspecified) | inconclusive: 24.1%
8 | CC(Oc1ccccc1)C(=O)N1CCCc2ccccc21 (stereo unspecified) | inconclusive: 22.8%
9 | Cc1ccc(C)n1-n1c(C)nc2scc(-c3cccs3)c2c1=O | inconclusive: 17%
10 | O=C(NC(=S)NCc1ccccc1Cl)c1cccs1 | inconclusive: 22.6%
11 | Oc1ccc(/C=N/Nc2ccc(C(F)(F)F)cn2)c(O)c1 | inconclusive: 20.6%
12 | O=C(Oc1cccc(-n2cnnn2)c1)c1ccco1 | active: 32.1%
13 | O=C(Oc1oc(-c2ccco2)nc1C=Nc1ccccc1)c1ccoc1 | active: 90%
14 | CC(C)OCCCNC(=O)c1cn(C)c2ccc(S(=O)(=O)N3CCCC3)cc2c1=O | inactive: -1.56%
15 | CC(C)CN(C(=O)COC(=O)CCCc1nc2ccccc2s1)c1c(N)n(Cc2ccccc2)c(=O)[nH]c1=O | inconclusive: 19.1%
16 | Cc1cc2[nH]c(=O)c(=O)[nH]c2cc1S(=O)(=O)Nc1cccc(C)c1C | inactive: -1.44%
17 | Cc1ccc(S(=O)(=O)Nc2cc(C(F)(F)F)ccc2N2CCOCC2)cc1C | inconclusive: 24.8%
18 | CCOC(=O)c1c(C)n(C(=O)c2ccco2)c(=O)n1C(=O)c1ccco1 | inconclusive: 39.7%
19 | CCCC(=O)Nc1nn(CC(C)C)c2nc3cc(C)ccc3cc12 | inactive: 4.11%
20 | CC(C)CCN1CC(C(=O)NC(C)C)CC1=O (stereo unspecified) | inconclusive: 12%
21 | CNS(=O)(=O)c1cccc(C(=O)OCC(=O)N2c3ccccc3CC2C)c1 (stereo unspecified) | inconclusive: 12.9%
22 | CCN(C(=O)COC(=O)c1cc([N+](=O)[O-])ccc1N1CCOCC1)C1CCS(=O)(=O)C1 (stereo unspecified) | inactive: -0.472%

Row | SMILES | inhibition
23 | Cc1cc(/C=C2/C(=O)N(C)C(=S)N2C)ccc1N1CCCC1 | inactive: -3.47%
24 | CC(=O)c1c(C)[nH]c(C(=O)COC(=O)CCOc2ccc(C)cc2)c1C | inconclusive: 10.2%
25 | CC1CC(=O)N(C)c2ccc([N+](=O)[O-])cc2N1 (stereo unspecified) | inconclusive: 15.8%
26 | CCN(C[C@H]1N[C@@](Cc2ccccc2)(C(=O)OC)[C@H]2C(=O)N(Cc3ccccc3)C(=O)[C@@H]12)S(=O)(=O)c1ccccc1 | inactive: -7.77%
27 | CCN(CC)c1ccc(/C=N/Nc2nc(C)cc(=O)[nH]2)cc1 | inconclusive: 19.6%
28 | O=C1Nc2cc(C(=O)NCCCN3CCCC3)ccc2S/C1=C/c1ccccc1F | inactive: 10.2%
29 | C[C@H](CO)N1C[C@H](C)[C@@H](CN(C)Cc2ccc(C(=O)Nc3ccccc3N)cc2)Oc2c(NC(=O)C3CCCCC3)cccc2C1=O | inconclusive: 20.8%
30 | Cc1cc(N=Nc2ccccc2C(=O)O)c(C)c(C)c1O | inactive: 8.6%
31 | O=C(CSc1nc2ccccc2o1)N/N=C/c1ccccc1 | inconclusive: 23.8%
32 | Cc1[nH]c2ccccc2c1/C=N/Nc1nc(Nc2ccc(F)cc2)nc(N2CCOCC2)n1 | inconclusive: 30.5%
33 | Cc1ccc(/C=C/C(=O)Nc2ccc(S(N)(=O)=O)cc2)o1 | inactive: 0.793%
34 | O=[N+]([O-])c1cccc(C(=Nc2ccccc2)NO)c1 | inconclusive: 21.2%
35 | CCCOC(=O)CSC1=C(C#N)C(c2ccc3c(c2)OCO3)CC(=O)N1 (stereo unspecified) | inconclusive: 25.7%
36 | COc1cc(CN2CCN(c3ccc(C)cc3)CC2)cc([N+](=O)[O-])c1O | inconclusive: 22.6%
37 | CCOC(=O)CSc1n[nH]c(NC(=O)c2cccc(C)c2)n1 | active: 90.1%
38 | CN(CC(=O)Nc1ccccc1Cl)C(=O)COC(=O)c1ccc([N+](=O)[O-])s1 | inactive: 1.03%
39 | COC(=O)c1sccc1NC(=O)CCC1CCCC1 | inconclusive: 23.4%
40 | CCCCC1(Cc2ccc(OC)c([N+](=O)[O-])c2)C(=O)N(c2ccccc2)N(c2ccccc2)C1=O | inconclusive: 22.1%
41 | Nc1c(C(=O)C2CC2)sc2nc3c(cc12)CCC3 | inactive: -13.7%
42 | CN1CCN(S(=O)(=O)c2ccc(Oc3cccc(C(F)(F)F)c3)nc2)CC1 | inconclusive: 20.1%
43 | CSc1nc(-c2ccccc2)nn1C(=O)c1ccc(C)cc1 | inconclusive: 50.6%
44 | CC(NCc1ccccc1O)c1ccccc1 (stereo unspecified) | inconclusive: 16.2%

Some of the entries so far, field by field:
Cc1ccc(/C=C/C(=O)Nc2ccc(S(N)(=O)=O)cc2)o1
  inhibition: inactive: 0.793%
O=[N+]([O-])c1cccc(C(=Nc2ccccc2)NO)c1
  inhibition: inconclusive: 21.2%
CCCOC(=O)CSC1=C(C#N)C(c2ccc3c(c2)OCO3)CC(=O)N1 (stereo unspecified)
  inhibition: inconclusive: 25.7%
COc1cc(CN2CCN(c3ccc(C)cc3)CC2)cc([N+](=O)[O-])c1O
  inhibition: inconclusive: 22.6%

(list continues)

Row | SMILES | inhibition
45 | CCC(=O)N1c2ccccc2NC2=C(C(=O)CCC2)C1c1cccnc1 (stereo unspecified) | inconclusive: 23.3%
46 | CC(Sc1ccc(Cl)cc1)C(=O)NCC(c1ccco1)N1CCCCC1 (stereo unspecified) | inconclusive: 18%
47 | CCOc1cc(NC(=O)CCl)c(OCC)cc1NC(C)=O | inconclusive: 17.1%
48 | CCC12CN3CC(CC)(CN(C1)C3c1ccc(OC(C)C)cc1)C2=O (stereo unspecified) | inconclusive: 21.3%
49 | COC(=O)c1ccc(Nc2nc(C)cc(=O)[nH]2)cc1 | inconclusive: 13.6%
50 | CCCOC(=O)Nc1cc(OC)ccc1[N+](=O)[O-] | inconclusive: 21.5%
51 | COc1ccc(-c2nn(-c3ccccc3)cc2/C=C2/SC(=S)N(CCCC(=O)O)C2=O)c(C)c1 | inconclusive: 12.4%
52 | O=C(CCCCCN1C(=O)c2ccccc2C1=O)Nc1ccc2c(c1)OCCO2 | inconclusive: 19.6%
53 | Cn1c(=O)cc(NCc2ccccc2)[nH]c1=O | inconclusive: 18.4%
54 | Cc1ccc(C(C(=O)NCC2CCCO2)N(Cc2ccccc2F)C(=O)Cn2nnc(-c3cccs3)n2)cc1 (stereo unspecified) | inactive: 6.37%
55 | COC(=O)CC1C(=O)NCCN1C(=S)Nc1cccc(C(F)(F)F)c1 (stereo unspecified) | inconclusive: 10.2%
56 | CC(C)(C)OC(=O)C(Cc1ccc(OC(C)(C)C)cc1)NC(=O)CNC(=O)OCc1ccccc1 (stereo not drawn) (Cbz-Gly-[ξY](tBu)-OtBu) | inconclusive: 15.5%
57 | CC(C)[N+]1(C)[C@@H]2CC[C@@H]1CC(OC(=O)C(CO)c1ccccc1)C2 (stereo partly specified) | inactive: 2.28%
58 | Cc1cccc(NC(=O)CCOc2ccccc2)c1 | inactive: -1.13%
59 | CCOC(=O)N1CCN(C(=O)c2ccc(N(Cc3ccc(C)cc3)S(C)(=O)=O)cc2)CC1 | inconclusive: 21.3%
60 | Cc1ccc(S(=O)(=O)NCc2ccccc2)cc1 | inactive: -8.16%
61 | Brc1ccc(-c2csc(N/N=C/c3cccnc3)n2)cc1 | inconclusive: 26.5%
62 | CCN(CC)S(=O)(=O)c1cccc(NC(=O)Nc2cccc(C(F)(F)F)c2)c1 | inconclusive: 22.6%
63 | O=C(Oc1cccc2cccnc12)c1cccc(N2C(=O)C3C4CCC(C4)C3C2=O)c1 (stereo unspecified) | inconclusive: 18.7%
64 | COc1cccc(-c2nc3n(n2)C(c2ccc4c(c2)OCO4)C(C(N)=O)=C(C)N3)c1 (stereo unspecified) | active: 55.9%
65 | Cc1cccc(CN2CCN(Cc3cccc4nonc34)CC2CCO)n1 (stereo unspecified) | inconclusive: 23.2%
66 | Cc1c(-c2ccccc2)n[nH]c1C(=O)N=Nc1c(O)[nH]c2ccccc12 | inconclusive: 13.2%

Row | SMILES | inhibition
67 | C/C(CC(=O)N(C(C)C)C(C)C)=N\NC(=O)COc1ccc(Br)cc1Br | inconclusive: 20.5%
68 | FC(F)(F)C1CCCN(c2nsc3ccccc23)C1 (stereo unspecified) | inconclusive: 25.2%
69 | CCC(C)c1ccccc1NC(=S)NC(=O)c1ccco1 (stereo unspecified) | inactive: 8.14%
70 | O=C(CSc1nc(CCC2CCCC2)nc2ccccc12)NCc1ccc2c(c1)OCO2 | inactive: 4.56%
71 | CN(CCc1ccccn1)Cc1ccc(Cl)cc1 | inactive: 0.689%
72 | CC(=O)Nc1ccc(-c2csc(Nc3ccc(Cl)cn3)n2)cc1 | inactive: 6.33%
73 | COc1ccc(C(=O)N/N=C/c2cc3ccccc3[nH]c2=S)cc1 | inconclusive: 18.1%
74 | CC(C)Cn1c(-c2ccco2)n[nH]c1=S | inconclusive: 22%
75 | Nc1cccc(-n2nnnc2CN2CCOCC2)c1 | inconclusive: 25.1%
76 | Cc1ccc(-c2nnn(CC(=O)N(Cc3ccccc3F)C(C(=O)NC3CCCC3)c3ccncc3)n2)o1 (stereo unspecified) | inconclusive: 23.5%
77 | Cc1ccc(OCC(=O)Nc2ccc(S(=O)(=O)N3CCCC3)cc2)cc1 | inconclusive: 15.8%
78 | COc1ccc(OCC(=O)N/N=C2\CCCCc3ccccc32)cc1 | inactive: 6.13%
79 | CCOC(=O)C1=C(CS(=O)(=O)c2ccccc2)NC(=O)NC1c1cccc(OC)c1 (stereo unspecified) | inactive: -1.45%
80 | C#CCOCCOCCOCCNc1nc(N2CCN(C(=O)CCCCCCCCCCNC(=O)[C@H](CO)n3cc(CCCSC)nn3)CC2)nc(N2CCN(C(=O)CCCCCCCCCCNC(=O)[C@H](CCCN=C(N)N)n3cc(C[C@@H](C)CC)nn3)CC2)n1 | inconclusive: 69.6%
81 | Oc1c(Cl)cc(Cl)cc1CNc1ccc(Br)cn1 | inactive: 5.09%
82 | CC/C(=N\NC(=O)c1ccc2c(c1)OCO2)c1ccccc1 | inconclusive: 30.6%
83 | CCNC(=S)N/N=C/c1cn(Cc2ccccc2F)c2ccccc12 | inconclusive: 13.7%
84 | COc1cccc(CNc2ccc3c(c2)ncn3C(C)C)c1OC | inconclusive: 18%
85 | CCOC(=O)c1cc2occc2n1CC(=O)N1CCCc2ccccc21 | inconclusive: 23.5%
86 | CCN(Cc1ccc2c(c1)OCCO2)C(=O)CSc1nc(C)nc2sc(C)c(C)c12 | inactive: -4.75%
